This is one part of the list.
Legend:
Assay in all cases: log2 fold change, soluble protein after heating vs DMSO (PISA); higher = thermal stabilisation; K562 cells, 10 uM, 30 min; active = over 0.2 and 3.5 SD of the protein, either way, in both replicates (recomputed)
[1] = compound: NC(=O)Nc1cc(-c2cccc(F)c2)sc1C(=O)N[C@H]1CCCNC1
In short: (§1)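 Aliquots of K562 cells (2×10^6 cells/mL) treated with 10 μM compound for 30 min were heated for 3 min over 48°C-58°C. After pooling and extraction in PBS with 0.5% NP-40 at 4°C, soluble protein from a 21,000xg, 90 min spin was quantified by TMTpro 16plex LC-MS/MS with channel sums equalised. Thermal stability is expressed against control samples, from duplicates, as a log2 fold change.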

By UniProt entry, the sequences of proteins in these tests, tags left out. Where a name states a change or a piece, a line headed by the entry shows the natural chain unless it says otherwise.
UniProt P49006: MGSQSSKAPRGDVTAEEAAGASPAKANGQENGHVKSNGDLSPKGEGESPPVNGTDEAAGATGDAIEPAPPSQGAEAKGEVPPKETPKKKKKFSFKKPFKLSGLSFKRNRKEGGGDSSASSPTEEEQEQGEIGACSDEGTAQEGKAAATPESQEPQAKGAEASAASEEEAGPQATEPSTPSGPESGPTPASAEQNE
UniProt Q6P9F7: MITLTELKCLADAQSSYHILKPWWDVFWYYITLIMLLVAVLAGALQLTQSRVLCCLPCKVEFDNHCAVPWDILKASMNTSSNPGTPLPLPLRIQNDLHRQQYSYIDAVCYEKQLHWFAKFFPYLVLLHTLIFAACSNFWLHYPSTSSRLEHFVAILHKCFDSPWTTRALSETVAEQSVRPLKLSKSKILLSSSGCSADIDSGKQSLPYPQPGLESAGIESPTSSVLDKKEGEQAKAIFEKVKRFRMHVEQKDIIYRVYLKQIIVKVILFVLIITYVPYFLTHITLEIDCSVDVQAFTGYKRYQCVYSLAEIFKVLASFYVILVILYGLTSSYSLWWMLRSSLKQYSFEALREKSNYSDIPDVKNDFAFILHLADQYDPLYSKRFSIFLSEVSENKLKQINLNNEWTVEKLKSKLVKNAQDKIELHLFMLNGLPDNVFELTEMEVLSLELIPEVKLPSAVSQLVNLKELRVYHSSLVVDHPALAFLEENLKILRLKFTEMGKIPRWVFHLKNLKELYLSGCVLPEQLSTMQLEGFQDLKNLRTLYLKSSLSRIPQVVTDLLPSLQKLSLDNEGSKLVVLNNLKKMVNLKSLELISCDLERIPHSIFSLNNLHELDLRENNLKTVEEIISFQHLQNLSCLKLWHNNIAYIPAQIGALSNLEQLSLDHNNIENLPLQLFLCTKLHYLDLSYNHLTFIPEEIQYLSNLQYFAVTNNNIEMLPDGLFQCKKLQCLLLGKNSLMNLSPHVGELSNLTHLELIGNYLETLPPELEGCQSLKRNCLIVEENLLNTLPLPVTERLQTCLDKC
UniProt Q13164: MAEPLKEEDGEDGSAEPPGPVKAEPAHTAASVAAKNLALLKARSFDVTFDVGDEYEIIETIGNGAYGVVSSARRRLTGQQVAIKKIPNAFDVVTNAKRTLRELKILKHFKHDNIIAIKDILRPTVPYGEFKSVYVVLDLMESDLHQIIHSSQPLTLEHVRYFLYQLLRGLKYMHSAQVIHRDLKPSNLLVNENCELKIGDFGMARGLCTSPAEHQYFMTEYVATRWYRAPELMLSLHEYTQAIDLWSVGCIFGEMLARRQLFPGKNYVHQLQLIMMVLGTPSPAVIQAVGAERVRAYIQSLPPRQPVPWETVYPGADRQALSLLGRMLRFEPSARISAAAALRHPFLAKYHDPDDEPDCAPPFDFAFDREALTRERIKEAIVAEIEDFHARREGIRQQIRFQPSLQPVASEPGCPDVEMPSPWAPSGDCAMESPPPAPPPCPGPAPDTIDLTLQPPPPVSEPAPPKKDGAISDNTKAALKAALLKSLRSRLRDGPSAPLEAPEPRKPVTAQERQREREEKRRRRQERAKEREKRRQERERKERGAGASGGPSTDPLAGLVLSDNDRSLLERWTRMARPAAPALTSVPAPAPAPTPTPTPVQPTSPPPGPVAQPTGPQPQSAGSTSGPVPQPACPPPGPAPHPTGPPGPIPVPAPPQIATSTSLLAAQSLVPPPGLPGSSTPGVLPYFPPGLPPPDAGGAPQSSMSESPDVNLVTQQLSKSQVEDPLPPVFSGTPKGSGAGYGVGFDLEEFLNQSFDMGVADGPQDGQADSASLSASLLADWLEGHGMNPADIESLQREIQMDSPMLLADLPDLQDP
UniProt Q13163: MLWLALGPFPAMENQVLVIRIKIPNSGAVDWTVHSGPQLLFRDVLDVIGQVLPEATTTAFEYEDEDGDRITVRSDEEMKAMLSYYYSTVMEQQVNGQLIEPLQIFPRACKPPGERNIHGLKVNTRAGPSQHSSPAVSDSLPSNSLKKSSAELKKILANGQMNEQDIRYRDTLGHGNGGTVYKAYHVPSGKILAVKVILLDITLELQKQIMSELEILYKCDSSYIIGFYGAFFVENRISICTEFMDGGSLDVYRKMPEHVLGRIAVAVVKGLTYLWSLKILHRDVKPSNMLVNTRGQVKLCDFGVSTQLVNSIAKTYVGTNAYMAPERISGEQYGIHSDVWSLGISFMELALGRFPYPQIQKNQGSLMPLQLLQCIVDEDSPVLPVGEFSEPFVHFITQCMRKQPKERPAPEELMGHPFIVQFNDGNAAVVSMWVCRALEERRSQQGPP
UniProt Q6NSJ5: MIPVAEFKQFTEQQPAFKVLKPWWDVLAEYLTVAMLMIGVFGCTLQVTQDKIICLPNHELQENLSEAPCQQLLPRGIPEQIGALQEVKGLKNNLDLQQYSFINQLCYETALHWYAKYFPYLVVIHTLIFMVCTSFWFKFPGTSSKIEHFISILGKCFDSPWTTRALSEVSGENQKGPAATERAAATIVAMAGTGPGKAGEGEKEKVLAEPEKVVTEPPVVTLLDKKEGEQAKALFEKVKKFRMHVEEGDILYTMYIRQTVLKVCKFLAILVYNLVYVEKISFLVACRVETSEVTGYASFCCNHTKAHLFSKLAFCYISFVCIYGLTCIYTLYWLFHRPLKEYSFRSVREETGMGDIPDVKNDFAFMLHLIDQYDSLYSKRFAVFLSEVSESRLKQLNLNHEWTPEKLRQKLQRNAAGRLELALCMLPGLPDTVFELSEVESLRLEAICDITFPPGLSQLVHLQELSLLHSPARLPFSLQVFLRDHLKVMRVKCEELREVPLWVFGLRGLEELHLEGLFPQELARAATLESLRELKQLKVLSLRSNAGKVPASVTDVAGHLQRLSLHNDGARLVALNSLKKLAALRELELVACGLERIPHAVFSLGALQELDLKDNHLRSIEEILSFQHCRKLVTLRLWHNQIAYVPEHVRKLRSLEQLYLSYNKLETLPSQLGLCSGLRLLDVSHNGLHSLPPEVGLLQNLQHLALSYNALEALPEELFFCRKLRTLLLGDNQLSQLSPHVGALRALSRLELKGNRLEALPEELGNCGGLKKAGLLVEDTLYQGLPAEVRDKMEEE
UniProt Q99759: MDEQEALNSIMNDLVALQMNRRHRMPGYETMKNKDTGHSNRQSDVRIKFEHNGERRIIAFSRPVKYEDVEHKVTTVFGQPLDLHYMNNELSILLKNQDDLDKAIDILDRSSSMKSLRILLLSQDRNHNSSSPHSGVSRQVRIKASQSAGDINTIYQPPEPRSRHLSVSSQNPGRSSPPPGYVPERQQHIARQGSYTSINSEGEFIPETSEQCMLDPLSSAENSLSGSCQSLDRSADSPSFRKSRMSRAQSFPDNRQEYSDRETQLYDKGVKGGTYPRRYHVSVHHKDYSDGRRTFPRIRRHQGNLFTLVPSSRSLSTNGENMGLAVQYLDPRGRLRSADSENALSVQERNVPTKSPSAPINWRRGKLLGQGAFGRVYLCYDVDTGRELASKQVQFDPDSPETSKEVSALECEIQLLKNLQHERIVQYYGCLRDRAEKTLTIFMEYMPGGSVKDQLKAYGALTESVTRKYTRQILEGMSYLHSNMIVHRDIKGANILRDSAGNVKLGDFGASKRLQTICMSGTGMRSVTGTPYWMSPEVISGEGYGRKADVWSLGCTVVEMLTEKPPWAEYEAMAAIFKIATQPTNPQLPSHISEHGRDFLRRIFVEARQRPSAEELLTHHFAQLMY
UniProt O43325: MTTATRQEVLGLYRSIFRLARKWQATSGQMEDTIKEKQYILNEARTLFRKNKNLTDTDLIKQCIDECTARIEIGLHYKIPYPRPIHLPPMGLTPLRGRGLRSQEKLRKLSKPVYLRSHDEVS
UniProt Q15759, whole entry, looked up: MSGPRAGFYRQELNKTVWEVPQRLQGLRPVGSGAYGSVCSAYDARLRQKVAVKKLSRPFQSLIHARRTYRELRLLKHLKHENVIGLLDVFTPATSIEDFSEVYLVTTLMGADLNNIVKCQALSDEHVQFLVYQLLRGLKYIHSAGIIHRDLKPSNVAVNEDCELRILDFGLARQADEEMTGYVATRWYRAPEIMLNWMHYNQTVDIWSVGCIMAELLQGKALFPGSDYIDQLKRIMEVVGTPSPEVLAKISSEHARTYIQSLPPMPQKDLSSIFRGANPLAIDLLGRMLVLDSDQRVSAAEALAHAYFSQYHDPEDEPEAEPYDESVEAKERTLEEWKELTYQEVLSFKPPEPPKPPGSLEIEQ
UniProt Q32MZ4: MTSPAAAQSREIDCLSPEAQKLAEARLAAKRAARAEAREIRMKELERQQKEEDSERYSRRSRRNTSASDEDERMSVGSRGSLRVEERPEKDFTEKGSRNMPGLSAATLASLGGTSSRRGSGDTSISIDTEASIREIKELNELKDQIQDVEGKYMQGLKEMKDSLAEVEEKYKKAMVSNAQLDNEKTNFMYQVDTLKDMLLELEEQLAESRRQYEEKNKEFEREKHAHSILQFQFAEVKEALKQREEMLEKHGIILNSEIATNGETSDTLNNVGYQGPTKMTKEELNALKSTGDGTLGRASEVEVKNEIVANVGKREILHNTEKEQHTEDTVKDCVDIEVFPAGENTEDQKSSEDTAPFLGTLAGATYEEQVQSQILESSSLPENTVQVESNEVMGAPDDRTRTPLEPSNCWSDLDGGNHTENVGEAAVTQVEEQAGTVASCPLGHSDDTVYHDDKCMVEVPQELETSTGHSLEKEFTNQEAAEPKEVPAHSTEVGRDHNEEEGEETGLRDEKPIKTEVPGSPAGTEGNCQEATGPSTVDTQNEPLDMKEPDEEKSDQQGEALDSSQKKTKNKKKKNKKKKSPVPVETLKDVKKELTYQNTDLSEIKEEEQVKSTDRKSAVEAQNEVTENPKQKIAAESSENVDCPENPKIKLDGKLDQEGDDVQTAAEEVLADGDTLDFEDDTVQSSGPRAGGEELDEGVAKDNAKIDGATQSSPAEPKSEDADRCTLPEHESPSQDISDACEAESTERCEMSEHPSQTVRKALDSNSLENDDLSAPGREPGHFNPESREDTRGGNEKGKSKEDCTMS
UniProt Q9Y4Y9: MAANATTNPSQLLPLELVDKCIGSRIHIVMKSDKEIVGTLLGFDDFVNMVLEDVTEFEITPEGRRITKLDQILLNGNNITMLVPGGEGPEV
UniProt Q86UD3: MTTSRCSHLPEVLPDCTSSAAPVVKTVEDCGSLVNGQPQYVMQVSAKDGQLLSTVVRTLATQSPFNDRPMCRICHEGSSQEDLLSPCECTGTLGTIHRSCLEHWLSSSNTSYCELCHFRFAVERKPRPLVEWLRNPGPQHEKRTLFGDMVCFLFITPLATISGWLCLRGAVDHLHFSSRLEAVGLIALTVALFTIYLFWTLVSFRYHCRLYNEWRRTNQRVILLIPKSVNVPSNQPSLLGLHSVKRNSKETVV
UniProt O95819: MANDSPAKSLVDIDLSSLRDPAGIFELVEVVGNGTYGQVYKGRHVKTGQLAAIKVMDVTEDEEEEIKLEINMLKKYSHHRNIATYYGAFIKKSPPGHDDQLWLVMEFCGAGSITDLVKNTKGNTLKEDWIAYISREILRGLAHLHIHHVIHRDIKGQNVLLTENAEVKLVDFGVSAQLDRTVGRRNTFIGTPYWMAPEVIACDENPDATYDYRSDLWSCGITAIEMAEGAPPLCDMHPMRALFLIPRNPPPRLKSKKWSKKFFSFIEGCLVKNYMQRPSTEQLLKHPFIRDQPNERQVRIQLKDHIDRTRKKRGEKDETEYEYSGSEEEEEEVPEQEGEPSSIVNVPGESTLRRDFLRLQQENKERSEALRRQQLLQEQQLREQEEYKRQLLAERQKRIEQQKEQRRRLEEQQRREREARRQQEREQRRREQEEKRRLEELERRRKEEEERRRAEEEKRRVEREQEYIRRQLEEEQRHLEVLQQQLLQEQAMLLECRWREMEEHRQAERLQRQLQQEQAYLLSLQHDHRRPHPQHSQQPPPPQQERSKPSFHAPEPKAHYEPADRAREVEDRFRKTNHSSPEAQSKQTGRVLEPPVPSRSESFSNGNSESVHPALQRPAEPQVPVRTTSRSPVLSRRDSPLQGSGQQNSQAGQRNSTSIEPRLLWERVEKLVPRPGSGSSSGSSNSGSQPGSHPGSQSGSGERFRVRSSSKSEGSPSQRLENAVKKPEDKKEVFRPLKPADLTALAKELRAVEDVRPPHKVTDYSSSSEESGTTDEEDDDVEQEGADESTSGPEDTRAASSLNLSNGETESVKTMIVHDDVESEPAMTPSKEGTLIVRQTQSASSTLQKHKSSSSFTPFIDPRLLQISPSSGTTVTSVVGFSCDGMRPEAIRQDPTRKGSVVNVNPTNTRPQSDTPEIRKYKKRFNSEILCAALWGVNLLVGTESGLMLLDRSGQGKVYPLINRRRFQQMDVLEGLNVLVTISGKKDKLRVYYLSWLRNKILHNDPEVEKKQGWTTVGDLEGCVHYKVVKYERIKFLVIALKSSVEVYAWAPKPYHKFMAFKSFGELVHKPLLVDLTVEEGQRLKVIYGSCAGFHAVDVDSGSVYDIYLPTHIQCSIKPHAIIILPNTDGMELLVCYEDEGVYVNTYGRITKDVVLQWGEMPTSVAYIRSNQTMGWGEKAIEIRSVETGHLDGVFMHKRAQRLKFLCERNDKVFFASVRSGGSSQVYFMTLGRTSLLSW

[2] = compound: NC(=O)c1cnc(N[C@@H]2CCCC[C@@H]2N)nc1Nc1cccc(-n2nccn2)c1
In short: as §1

[3] = compound: NCC(=O)Nc1ccc(-n2nc(C(F)(F)F)cc2-c2ccc3c(ccc4ccccc43)c2)cc1
In short: as §1

entinostat = compound: Nc1ccccc1NC(=O)c1ccc(CNC(=O)OCc2cccnc2)cc1 [entinostat]
In short: as §1

[4] = compound: NC1(c2ccc(-c3nc4ccn5c(=O)[nH]nc5c4cc3-c3ccccc3)cc2)CCC1
In short: as §1

vorinostat = compound: O=C(CCCCCCC(=O)Nc1ccccc1)NO [vorinostat]
In short: as §1

citarinostat = compound: O=C(CCCCCCNC(=O)c1cnc(N(c2ccccc2)c2ccccc2Cl)nc1)NO [citarinostat]
In short: as §1

silmitasertib = compound: O=C(O)c1ccc2c(c1)nc(Nc1cccc(Cl)c1)c1ccncc12 [silmitasertib]
In short: as §1

[5] = compound: O=C1NC(=O)C(c2cnc3ccccn23)=C1c1cn2c3c(cc(F)cc13)CN(C(=O)N1CCCCC1)CC2
In short: as §1

[6] = compound: c1cc(OCCN2CCCCC2)cc(-c2n[nH]c3ccc(-c4nnc[nH]4)cc23)c1
In short: as §1

Row | Target | log2 fold change [1] | log2 fold change [2] | log2 fold change [3] | log2 fold change (entinostat) | log2 fold change [4] | log2 fold change (vorinostat) | log2 fold change (citarinostat) | log2 fold change (silmitasertib) | log2 fold change [5] | log2 fold change [6]
1 | MAPT isoform 9 (UniProt P10636) | inactive: 0.167 | inactive: -0.034 | inactive: 0.037 | inactive: -0.226 |  |  |  |  |  | 
2 | MAP11 (UniProt Q8WVR3) | inactive: -0.039 |  | inactive: 0.024 | inactive: 0.004 | inactive: -0.169 | inactive: 0.135 | inactive: -0.018 | inactive: 0 | inactive: 0.04 | inactive: -0.061
3 | LRWD1 (UniProt Q9UFC0) | inactive: 0.032 | inactive: 0.094 | inactive: 0.163 | inactive: 0.255 | inactive: -0.144 |  | inactive: 0.278 | inactive: 0.043 | inactive: 0.024 | inactive: -0.15
4 | MAPRE3 (UniProt Q9UPY8) | inactive: -0.002 | inactive: -0.053 | inactive: -0.052 | inactive: 0.066 | inactive: -0.112 | inactive: 0.002 | inactive: 0.049 | inactive: 0.004 | inactive: -0.087 | inactive: -0.04
5 | MANF (UniProt P55145) | inactive: 0.072 | inactive: -0.013 | inactive: 0.025 | inactive: 0 | inactive: -0.013 | inactive: -0.042 | inactive: 0.001 | inactive: 0.002 | inactive: -0.02 | inactive: -0.005
6 | MAFF (UniProt Q9ULX9) | inactive: -0.042 | inactive: -0.06 | inactive: 0.096 | inactive: -0.091 | inactive: 0.112 | inactive: -0.273 | inactive: 0 | inactive: -0.118 |  | inactive: 0.153
7 | LSM6 (UniProt P62312) | inactive: 0.034 | inactive: 0.068 | inactive: 0.151 | inactive: 0.004 | inactive: 0.067 | inactive: 0.009 | inactive: 0.032 | inactive: -0.015 | inactive: -0.013 | inactive: 0.001
8 | LYZ (UniProt P61626) | inactive: 1.53 | inactive: 0.418 | inactive: 0.022 | inactive: 0.039 | inactive: 0.178 |  | inactive: 0.157 | inactive: -0.094 | inactive: -0.216 | inactive: 0.577
9 | MARCKSL1 (UniProt P49006) | inactive: -0.02 | inactive: 0.028 | inactive: 0.002 | inactive: 0.075 | inactive: -0.01 | inactive: -0.062 | inactive: 0.162 | inactive: -0.115 | inactive: -0.035 | inactive: 0.089
10 | MAGEA1 (UniProt P43355) |  |  |  |  | inactive: -0.05 | inactive: 0.074 |  | inactive: 0.114 | inactive: 0.046 | 
11 | MAP4K2 (UniProt Q12851) | active: 0.827 |  |  | inactive: 0.145 |  |  | inactive: 0.116 |  |  | inactive: -0.22
12 | LRRC8B (UniProt Q6P9F7) | inactive: 0.014 |  |  | inactive: -0.35 | inactive: 0.171 |  |  | inactive: -0.08 | inactive: 0.075 | 
13 | LYST (UniProt Q99698) |  |  | inactive: -0.126 |  | inactive: 0.221 | inactive: -0.288 |  | inactive: 0.245 | inactive: -0.239 | 
14 | MAPK7 (UniProt Q13164) |  | inactive: -0.25 |  |  |  | inactive: -0.069 |  |  | inactive: 0 | 
15 | MAPKAP1 (UniProt Q9BPZ7) |  |  |  |  |  | inactive: 0.212 |  |  | inactive: 0.129 | 
16 | LYPLA1, A0A087X1K9 |  |  |  |  | inactive: -0.312 |  |  | inactive: 0.085 |  | 
17 | MAP4K3 (UniProt Q8IVH8) | inactive: 0.356 |  | inactive: -0.38 | inactive: 0.161 |  |  | inactive: -0.031 |  |  | inactive: -0.128
18 | MAP7D3 (UniProt Q8IWC1) | inactive: -0.144 |  |  | inactive: -0.154 |  | inactive: 0.05 | inactive: 0.019 |  | inactive: 0.211 | inactive: -0.033
19 | MAML1 (UniProt Q92585) | inactive: 0.08 |  | inactive: 0.088 | inactive: -0.104 |  |  |  |  | inactive: 0.025 | 
20 | MAP2K5 (UniProt Q13163) |  | inactive: -0.025 |  |  |  |  |  |  |  | 
21 | LTBP1 isoform 4 (UniProt Q14766) |  | inactive: 0.016 | inactive: 0.001 |  |  | inactive: 0.066 |  |  | inactive: 0.113 | 

Row | Target | log2 fold change [1] | log2 fold change [2] | log2 fold change [3] | log2 fold change (entinostat) | log2 fold change [4] | log2 fold change (vorinostat) | log2 fold change (citarinostat) | log2 fold change (silmitasertib) | log2 fold change [5] | log2 fold change [6]
22 | MAD1L1 (UniProt Q9Y6D9) |  | inactive: -0.073 | inactive: -0.087 |  | inactive: 0.025 | inactive: 0.187 |  | inactive: -0.127 | inactive: -0.233 | 
23 | LRRC8E (UniProt Q6NSJ5) | inactive: -0.001 |  | inactive: 0.067 | inactive: -0.391 | inactive: -0.227 | inactive: 0.054 |  | inactive: -0.078 | inactive: -0.044 | 
24 | LSR isoform 3 (UniProt Q86X29) | inactive: -0.531 |  |  | inactive: -0.134 | inactive: -0.327 |  |  | inactive: 0.062 |  | 
25 | MAP3K3 isoform 2 (UniProt Q99759) | inactive: 0.041 |  | inactive: -0.159 | inactive: 0.007 | inactive: -0.4 | inactive: -0.02 | inactive: -0.021 | inactive: -0.106 | inactive: 0.171 | inactive: 0.076
26 | LYRM1 (UniProt O43325) | inactive: -0.036 |  | inactive: -0.075 | inactive: -0.029 | inactive: -0.035 | inactive: -0.101 | inactive: 0.227 | inactive: 0.062 | inactive: -0.041 | inactive: 0.041
27 | LSR (UniProt M0QZL9) | inactive: -0.508 |  | inactive: -0.095 | inactive: -0.406 |  |  |  |  | inactive: -0.074 | 
28 | MAFG (UniProt O15525) |  | inactive: 0.003 | inactive: -0.009 |  |  | inactive: -0.136 |  |  | inactive: -0.13 | 
29 | MAPK11 (UniProt Q15759) |  |  |  |  |  | inactive: 0.033 |  |  |  | 
30 | MAN2B1 (UniProt M0QYZ1) |  | inactive: -0.04 |  |  |  |  |  |  | inactive: -0.356 | 
31 | LRRFIP1 isoform 4 (UniProt Q32MZ4) |  | inactive: 0.04 |  |  |  | inactive: -0.062 |  |  | inactive: -0.019 | 
32 | LSG1 (UniProt Q9H089) |  | inactive: 0.056 | inactive: 0.006 |  | inactive: 0.064 |  | inactive: -0.105 | inactive: 0.129 | inactive: 0.308 | inactive: -0.094
33 | LSM5 (UniProt Q9Y4Y9) | inactive: 0.14 |  |  | inactive: 0.004 | inactive: -0.067 | inactive: -0.187 | inactive: 0.028 | inactive: -0.035 | inactive: -0.027 | inactive: 0.049
34 | MAPRE3 isoform 2 (UniProt Q9UPY8) |  | inactive: -0.033 |  |  |  |  |  |  |  | 
35 | MARCHF3 (UniProt Q86UD3) | inactive: 0.169 |  |  | inactive: -0.038 |  |  | inactive: -0.133 |  | inactive: -0.014 | inactive: -0.26
36 | MAGEB10 (UniProt Q96LZ2) |  | inactive: -0.047 | inactive: -0.042 |  |  |  | inactive: 0.107 |  |  | inactive: -0.004
37 | LRRCC1 (UniProt Q9C099) |  | inactive: -0.041 |  |  |  |  |  |  |  | 
38 | MAGEA8 (UniProt P43361) |  | inactive: -0.135 | inactive: 0.034 |  |  | inactive: -0.063 | inactive: 0.012 |  |  | inactive: -0.008
39 | MAP4K4 isoform 6 (UniProt O95819) | inactive: 0.332 |  | inactive: 0.228 | inactive: 0.237 | inactive: 0.009 |  | inactive: 0.114 | inactive: -0.202 |  | inactive: 0.143
40 | LSM11 (UniProt P83369) |  |  |  |  |  | inactive: -0.053 |  |  |  | 
41 | LSM14A, A0A140TA76 |  | inactive: 0.236 | inactive: 0.069 |  | inactive: 0.025 |  |  | inactive: -0.094 |  | 
42 | MANSC1 (UniProt Q9H8J5) |  | inactive: 0.152 |  |  |  |  |  |  |  | 

Reprinted, nos. 36–38
Row | Target | log2 fold change [1] | log2 fold change [2] | log2 fold change [3] | log2 fold change (entinostat) | log2 fold change [4] | log2 fold change (vorinostat) | log2 fold change (citarinostat) | log2 fold change (silmitasertib) | log2 fold change [5] | log2 fold change [6]
36 | MAGEB10 (UniProt Q96LZ2) |  | inactive: -0.047 | inactive: -0.042 |  |  |  | inactive: 0.107 |  |  | inactive: -0.004
37 | LRRCC1 (UniProt Q9C099) |  | inactive: -0.041 |  |  |  |  |  |  |  | 
38 | MAGEA8 (UniProt P43361) |  | inactive: -0.135 | inactive: 0.034 |  |  | inactive: -0.063 | inactive: 0.012 |  |  | inactive: -0.008
